Assay [1] has as its target T1, PYE fused to the N-terminal part of YFP (nYFP-PYE) (Arabidopsis thaliana) (UniProt Q9SN74).
T1 sequence: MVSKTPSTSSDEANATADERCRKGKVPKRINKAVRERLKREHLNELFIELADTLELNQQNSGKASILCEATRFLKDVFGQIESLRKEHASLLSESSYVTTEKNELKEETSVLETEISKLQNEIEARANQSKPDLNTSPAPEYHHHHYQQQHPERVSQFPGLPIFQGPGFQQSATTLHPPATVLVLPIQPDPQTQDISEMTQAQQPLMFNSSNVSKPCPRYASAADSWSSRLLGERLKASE
In words: split reporter.

Assay [2] concerns the target T2, HY5 fused with C-terminal part of YFP (HY5-cYFP) (Arabidopsis thaliana) (UniProt O24646).
T2 sequence: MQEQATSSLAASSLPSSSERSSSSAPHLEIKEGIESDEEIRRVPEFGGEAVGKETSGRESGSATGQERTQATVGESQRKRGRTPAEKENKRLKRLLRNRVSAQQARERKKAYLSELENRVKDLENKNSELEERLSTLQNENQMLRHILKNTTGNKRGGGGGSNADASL
In words: split reporter.

No constants are given. Whether binding was seen depends on the method and setting. Binding seen in cells or lysates may run through a third protein. Sequences can lack the tags named with a protein.

On to “cYFP alone (C-terminal part of YFP) (domain or fragment)”, for which the binding result in assay [1] is “no binding”.
“nYFP alone (N-terminal part of YFP) (domain or fragment)”: the binding result in assay [2] is given as “no binding”.

(Values after doi:10.1101/2024.05.06.592684.)
